The results in this text go back to the supplement of paper PMC4371806.

In the experiment the test system is Escherichia coli BW25113. Briefly: plate-normalized OD600 growth (mean of duplicates) (OD600 (normalized)); higher = more growth (less inhibition). To be noted: 10 µM. Here is the method: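 E. coli BW25113 in LB (100 µl, 96-well, no shaking) was exposed to 10 µM of each compound (here the ChemBridge subset of a ~30,000-member library) and grown at 37°C for 24 h or 15°C for 48 h, in duplicate. Growth was read as OD600 and the duplicate ODs were normalized across screening plates to correct plate-to-plate variation.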

Whole data set: some 1,600 compounds, median “plate-normalized OD600 growth (mean of duplicates)” near 0.31, cut for the lowest 2% near 0.23. This is one part of the list.

For `NNC(=O)c1cc(-c2ccc([N+](=O)[O-])cc2)nc2ccccc12`, the “plate-normalized OD600 growth” value came to 0.251 (temperature: 15°C, 48 h) and 0.647 (temperature: 37°C, 24 h).
The corresponding values for `O=[N+]([O-])c1ccccc1/C=C/CN1CCCCC1CO` (stereo unspecified) are 0.264 and 0.63.
Take `Cc1ccc2c(c1)c1c(n2C)C(C(N)=O)CCC1` (stereo unspecified): the “plate-normalized OD600 growth” value runs as follows: (temperature: 15°C, 48 h) 0.256; (temperature: 37°C, 24 h) 0.619.
For `O=C(c1ccc(F)cc1)N(Cc1ccccc1)Cc1ccccc1`, the “plate-normalized OD600 growth” value by setting is: (temperature: 15°C, 48 h) 0.268; (temperature: 37°C, 24 h) 0.627.
In the same order, the values of `C#CCN1C(=O)C(O)(CC(=O)c2ccc3c(c2)CCCC3)c2ccccc21` (stereo unspecified) are 0.252 and 0.599.
As for `N#C/C(=C/c1ccccc1Cl)c1nc(-c2ccccc2)cs1`, the “plate-normalized OD600 growth” value reads like this: (temperature: 15°C, 48 h) 0.247; (temperature: 37°C, 24 h) 0.607.
In the same order, the values of `Cn1cccc1C1Nc2ccccc2NC2=C1C(=O)CC(C)(C)C2` (stereo unspecified) are 0.222 and 0.609.
The corresponding values for `CN1CCN(C/C=C/c2ccc(N(C)C)cc2)CC1` are 0.265 and 0.658.
The corresponding values for `CN(Cc1ccccc1)C1CC(=O)N(c2ccc(C(=O)O)cc2)C1=O` (stereo unspecified) are 0.246 and 0.621.
For `Cc1ccc(N(CC(=O)NC(C)C)S(=O)(=O)c2ccccc2)cc1`, the “plate-normalized OD600 growth” value is, setting by setting: (temperature: 15°C, 48 h) 0.242; (temperature: 37°C, 24 h) 0.63.
The corresponding values for `CN1CCc2oc3ccc(N)cc3c2C1` are 0.246 and 0.615.
In the same order, the values of `Cc1ccc(NS(=O)(=O)c2ccc(F)cc2)cc1C` are 0.25 and 0.619.
In the case of `CC(=O)NC(Cc1ccccc1)Cc1ccccc1`, the “plate-normalized OD600 growth” value by setting is: (temperature: 15°C, 48 h) 0.248; (temperature: 37°C, 24 h) 0.608.
For `CN(C)c1ccc2c(c1)OC(N)=C(C#N)C2c1cc(Br)cs1` (stereo unspecified), the “plate-normalized OD600 growth” value runs as follows: (temperature: 15°C, 48 h) 0.26; (temperature: 37°C, 24 h) 0.617.
The corresponding values for `N#Cc1ccc(Oc2ccc(C#N)cc2)cc1` are 0.258 and 0.641.
The corresponding values for `CN1CCN(C2CC(=O)N(c3cc(Cl)cc(Cl)c3)C2=O)CC1` (stereo unspecified) are 0.266 and 0.656.
In the same order, the values of `NNC(=O)C(NC(=O)c1ccccc1)c1n[nH]c(=O)c2ccccc12` (stereo unspecified) are 0.261 and 0.636.
For the molecule `Cc1ccccc1NC(=O)c1cccc(S(=O)(=O)Nc2cccc([N+](=O)[O-])c2)c1`, the “plate-normalized OD600 growth” value (temperature: 15°C, 48 h) amounted to 0.256 and the “plate-normalized OD600 growth” value (temperature: 37°C, 24 h) worked out at 0.626.
In the same order, the values of `CC(=O)c1c(C)oc2ccc(O)c(CN3CCOCC3)c12` are 0.255 and 0.616.
In the same order, the values of `O=C(O)c1ccc(S(=O)(=O)N2CCOCC2)cc1` are 0.24 and 0.63.
The corresponding values for `Cc1ccnc(NS(=O)(=O)c2ccc(C(C)(C)C)cc2)c1` are 0.259 and 0.615.
`O=C(Nc1ccc(Cl)cc1)C(O)(c1ccccc1)c1ccccc1`: the “plate-normalized OD600 growth” value came to 0.246 (temperature: 15°C, 48 h) and 0.621 (temperature: 37°C, 24 h).
Regarding `CCOc1cc(C)nn1-c1ccccc1`, the “plate-normalized OD600 growth” value reads like this: (temperature: 15°C, 48 h) 0.253; (temperature: 37°C, 24 h) 0.612.
In the same order, the values of `Oc1ccccc1-c1cc(-c2ccccc2)n[nH]1` are 0.27 and 0.643.
In the case of `Cc1ccc(C)c(S(=O)(=O)Nc2ccccc2Cl)c1`, the “plate-normalized OD600 growth” value reads like this: (temperature: 15°C, 48 h) 0.251; (temperature: 37°C, 24 h) 0.6.
The corresponding values for `CN(C)c1ccc(/C=C/c2ccnc3ccccc23)cc1` are 0.26 and 0.627.
In the same order, the values of `Cc1ccc2[nH]c3c(c2c1)CCCC3O` (stereo unspecified) are 0.246 and 0.625.
In the same order, the values of `CC(CN1CCCC(C(N)=O)C1)c1ccccc1` (stereo unspecified) are 0.261 and 0.623.
Consider `O=S(=O)(Nc1ccc2c(c1)OCO2)c1ccc(Cl)cc1`, for which the “plate-normalized OD600 growth” value worked out at 0.24 (temperature: 15°C, 48 h) and 0.607 (temperature: 37°C, 24 h).
In the same order, the values of `C#CCSc1nc2c(cc1C#N)CCCC2` are 0.237 and 0.61.
The corresponding values for `COc1cc(NC(=O)c2ccc([N+](=O)[O-])cc2)cc(OC)c1` are 0.267 and 0.674.
In the same order, the values of `NC(=O)c1cc(-c2ccccc2)sc1N` are 0.247 and 0.612.
As to `NCC(=O)Nc1ccc(Br)cc1`, the “plate-normalized OD600 growth” value was 0.227 (temperature: 15°C, 48 h) and 0.606 (temperature: 37°C, 24 h).
In the same order, the values of `NNc1nc2sc3c(c2c(=O)n1Cc1ccccc1)CCCC3` are 0.259 and 0.626.
The corresponding values for `c1ccc(CN2C3=NCCCN3c3ccccc32)cc1` are 0.249 and 0.625.
Regarding `CCN(CC)CCCOc1ccc(C)cc1`, the “plate-normalized OD600 growth” value is, setting by setting: (temperature: 15°C, 48 h) 0.255; (temperature: 37°C, 24 h) 0.632.
On to `CCc1cc2c(=O)c(-c3nc4ccccc4s3)c(C)oc2cc1O`, for which the “plate-normalized OD600 growth” value by setting is: (temperature: 15°C, 48 h) 0.259; (temperature: 37°C, 24 h) 0.622.
The corresponding values for `COc1cc(NC(=O)c2cccc(Br)c2)c(OC)cc1Cl` are 0.252 and 0.613.
The corresponding values for `O=[N+]([O-])c1ccc(N2CCN(S(=O)(=O)c3ccc(Cl)cc3)CC2)cc1` are 0.267 and 0.658.
Consider `CCS(=O)(=O)N1CCN(C(=O)c2ccc(OC)cc2)CC1`, for which the “plate-normalized OD600 growth” value runs as follows: (temperature: 15°C, 48 h) 0.262; (temperature: 37°C, 24 h) 0.617.
The corresponding values for `COc1ccc(C2=NN(CCc3ccccn3)C(=O)C2)cc1` are 0.234 and 0.615.
In the same order, the values of `O=C(Nc1ccccc1[N+](=O)[O-])c1cccc(S(=O)(=O)N2CCCCC2)c1` are 0.243 and 0.601.
In the same order, the values of `CCS(=O)(=O)C(=C1Nc2ccccc2N1)S(=O)(=O)CC` are 0.253 and 0.611.
In the case of `CN(C)C(=O)CCc1cc(C(C)(C)C)c(O)c(C(C)(C)C)c1`, the “plate-normalized OD600 growth” value (temperature: 15°C, 48 h) was found to be 0.251 and the “plate-normalized OD600 growth” value (temperature: 37°C, 24 h) is 0.63.
In the same order, the values of `N#CC1=C(N)SC(N)=C(C#N)C1c1ccco1` are 0.258 and 0.634.
In the same order, the values of `COc1ccc(CNCc2ccc(OC)cc2)cc1` are 0.256 and 0.621.
The corresponding values for `COc1ccc(N/C=C(/C#N)c2nc(-c3cccs3)cs2)cc1` are 0.23 and 0.616.
Turning to `COc1ccc(Br)cc1/C=C/C(=O)c1cccs1`, the “plate-normalized OD600 growth” value runs as follows: (temperature: 15°C, 48 h) 0.239; (temperature: 37°C, 24 h) 0.626.
The corresponding values for `N#Cc1ccc(-n2nnc3ccccc32)cc1C#N` are 0.25 and 0.613.
As for `COc1cccc(OC)c1C(=O)Nc1ccc(C)cc1C`, the “plate-normalized OD600 growth” value by setting is: (temperature: 15°C, 48 h) 0.232; (temperature: 37°C, 24 h) 0.626.
The corresponding values for `CC(=O)C1=C(O)C(=O)N(CC(=O)O)C1c1ccccc1F` (stereo unspecified) are 0.25 and 0.63.
In the same order, the values of `N#C/C(=C/C=C/c1ccccc1)c1nc(-c2ccc(F)cc2)cs1` are 0.266 and 0.627.
Take `Cc1ccc(NC(=O)C2=C(O)CCn3c2nc2ccccc23)cc1`: the “plate-normalized OD600 growth” value (temperature: 15°C, 48 h) is 0.244 and the “plate-normalized OD600 growth” value (temperature: 37°C, 24 h) amounted to 0.59.
